Laboratory results: PubChem BioAssay AID1224830 (NIAID, 2016)
Aim: 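Host factors that control LPS-induced TNF expression in human macrophages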 (primary screen). Cell system: human THP-1 monocytic leukaemia cells, TNF dual-luciferase reporter clone, PMA-differentiated to macrophage-like cells. Reagent: siRNA pool against human genes, 50 nM. Duration: LPS for 4 h, given about 3 days after siRNA transfection. Conditions: bacterial LPS (TLR4 ligand), 10 ng/ml. Measured: 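Ratio of firefly to renilla light, scaled to the plate median and expressed as a robust z-score per replicate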. Direction: TNF reporter robust z-score: higher = stronger TNF reporter response to LPS. Call rule: 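a well is active when its z-score exceeds 2.8 or falls below -1.5; control wells carry no call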.
The deposit covers about 18,000 reagents; below is a random part of them. About 2,900 of them (16%) were called active. 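Calls are made per well; low scores hint the gene aids the LPS response, high scores that it dampens it.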 A number with no mark means an inactive call. Repeated entries: four replicate wells of each siRNA pool.

The opening 2 records as a preview:
| target gene | TNF reporter robust z-score |
| --- | --- |
| RIMKLA (ribosomal modification protein rimK like family member A) | -0.8 |
| RIMKLA (ribosomal modification protein rimK like family member A) | -0.31 |

Main list, from the first entry:
| target gene | TNF reporter robust z-score |
| --- | --- |
| RIMKLA (ribosomal modification protein rimK like family member A) | -0.8 |
| RIMKLA (ribosomal modification protein rimK like family member A) | -0.31 |
| RIMKLA (ribosomal modification protein rimK like family member A) | -0.83 |
| RIMKLA (ribosomal modification protein rimK like family member A) | 0.22 |
| DKC1 (dyskerin pseudouridine synthase 1) | 0.88 |
| DKC1 (dyskerin pseudouridine synthase 1) | 0.57 |
| DKC1 (dyskerin pseudouridine synthase 1) | -0.14 |
| DKC1 (dyskerin pseudouridine synthase 1) | 1.33 |
| WNT5A (Wnt family member 5A) | -0.41 |
| WNT5A (Wnt family member 5A) | -1.81 (active) |
| WNT5A (Wnt family member 5A) | -1.08 |
| WNT5A (Wnt family member 5A) | -0.76 |
| INTS12 (integrator complex subunit 12) | 0.42 |
| INTS12 (integrator complex subunit 12) | 0.51 |
| INTS12 (integrator complex subunit 12) | -0.79 |
| INTS12 (integrator complex subunit 12) | 4.03 (active) |
| LINC02875 (long independently transcribed non-coding RNA 2875) | -0.74 |
| LINC02875 (long independently transcribed non-coding RNA 2875) | -0.52 |
| LINC02875 (long independently transcribed non-coding RNA 2875) | -0.72 |
| LINC02875 (long independently transcribed non-coding RNA 2875) | -0.78 |
| FRRS1L (ferric chelate reductase 1 like) | 0.43 |
| FRRS1L (ferric chelate reductase 1 like) | 2.52 |
| FRRS1L (ferric chelate reductase 1 like) | -0.12 |
| FRRS1L (ferric chelate reductase 1 like) | -0.06 |
| GALNT8 (polypeptide N-acetylgalactosaminyltransferase 8) | 0.54 |
| GALNT8 (polypeptide N-acetylgalactosaminyltransferase 8) | 1.47 |
| GALNT8 (polypeptide N-acetylgalactosaminyltransferase 8) | 0.74 |
| GALNT8 (polypeptide N-acetylgalactosaminyltransferase 8) | 1.03 |
| CD300LF (CD300 molecule like family member f) | 0.29 |
| CD300LF (CD300 molecule like family member f) | -1.15 |
| CD300LF (CD300 molecule like family member f) | -1.17 |
| CD300LF (CD300 molecule like family member f) | -0.97 |
| CD300LF (CD300 molecule like family member f) | 2.01 |
| CD300LF (CD300 molecule like family member f) | 2.25 |
| CD300LF (CD300 molecule like family member f) | 0.92 |
| UGT2B28 (UDP glucuronosyltransferase family 2 member B28) | -0.14 |
| UGT2B28 (UDP glucuronosyltransferase family 2 member B28) | 0.75 |
| UGT2B28 (UDP glucuronosyltransferase family 2 member B28) | 1.58 |
| UGT2B28 (UDP glucuronosyltransferase family 2 member B28) | 1.31 |
| ZNF415 (zinc finger protein 415) | -0.04 |
| ZNF415 (zinc finger protein 415) | 1.04 |
| ZNF415 (zinc finger protein 415) | 0.68 |
| ZNF415 (zinc finger protein 415) | 0.98 |
| LRRN4 (leucine rich repeat neuronal 4) | 0.2 |
| LRRN4 (leucine rich repeat neuronal 4) | 0.74 |
| LRRN4 (leucine rich repeat neuronal 4) | 0.36 |
| LRRN4 (leucine rich repeat neuronal 4) | -0.63 |
| ZNF226 (zinc finger protein 226) | 0.04 |
| ZNF226 (zinc finger protein 226) | 0.11 |
| ZNF226 (zinc finger protein 226) | 1.28 |
| ZNF226 (zinc finger protein 226) | 2.21 |
| RAB11FIP4 (RAB11 family interacting protein 4) | -0.95 |
| RAB11FIP4 (RAB11 family interacting protein 4) | -0.52 |
| RAB11FIP4 (RAB11 family interacting protein 4) | -0.72 |
| RAB11FIP4 (RAB11 family interacting protein 4) | 0.19 |
| ARHGEF37 (Rho guanine nucleotide exchange factor 37) | -0.83 |
| ARHGEF37 (Rho guanine nucleotide exchange factor 37) | -0.17 |
| ARHGEF37 (Rho guanine nucleotide exchange factor 37) | -0.34 |
| ARHGEF37 (Rho guanine nucleotide exchange factor 37) | 0.37 |
| LIPK (lipase family member K) | 0.04 |
| LIPK (lipase family member K) | 0.28 |
| LIPK (lipase family member K) | -0.18 |
| MSS51 (MSS51 mitochondrial translational activator) | -1.68 (active) |
| MSS51 (MSS51 mitochondrial translational activator) | -1.25 |
| MSS51 (MSS51 mitochondrial translational activator) | -0.65 |
| MSS51 (MSS51 mitochondrial translational activator) | 2.41 |
| COASY (Coenzyme A synthase) | -1.09 |
| COASY (Coenzyme A synthase) | 0.23 |
| COASY (Coenzyme A synthase) | -0.44 |
| COASY (Coenzyme A synthase) | 0.1 |
| APC2 (APC regulator of Wnt signaling pathway 2) | 2.75 |
| APC2 (APC regulator of Wnt signaling pathway 2) | 1.94 |
| APC2 (APC regulator of Wnt signaling pathway 2) | 2.35 |
| APC2 (APC regulator of Wnt signaling pathway 2) | 3 (active) |
| CYTL1 (cytokine like 1) | -0.53 |
| CYTL1 (cytokine like 1) | -0.14 |
| CYTL1 (cytokine like 1) | -0.17 |
| CYTL1 (cytokine like 1) | -0.43 |
